Test results published in publication PMC3585378.
These are yes or no findings as the source states them, for the method shown.

The chains behind the UniProt entries cited, without tags or fusion partners. Residues count along the entry.
UniProt Q99PZ6: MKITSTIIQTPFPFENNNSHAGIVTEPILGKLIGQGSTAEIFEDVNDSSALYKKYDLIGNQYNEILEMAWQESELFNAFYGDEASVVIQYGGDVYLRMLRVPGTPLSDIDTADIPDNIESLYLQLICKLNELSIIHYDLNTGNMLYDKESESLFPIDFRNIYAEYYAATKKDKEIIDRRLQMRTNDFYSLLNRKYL
UniProt P63165, residues 1-97: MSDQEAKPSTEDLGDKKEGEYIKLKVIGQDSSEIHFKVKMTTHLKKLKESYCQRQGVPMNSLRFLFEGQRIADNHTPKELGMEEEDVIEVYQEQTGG

Tests used:
[1] = biological target: His6-OspG (Shigella flexneri 2a strain 301) (UniProt Q99PZ6); assay: pull-down; both purified
[2] = biological target: His6-OspG (Shigella flexneri 2a strain 301) (UniProt Q99PZ6); assay: SEC; both purified

| Substance | binding [1] | binding [2] |
| --- | --- | --- |
| GST-SUMO1 (from UniProt P63165 1-97) | no binding (tested: 20 µg of prey proteins in 1 mL) | – |
| His6-OspG (from UniProt Q99PZ6 1-196) | – | no binding (tested: 200 µg loaded) |
